From US20210189010A1
These are yes or no findings as the source states them, for the method shown. Some binding calls cover weakened binding; strength is not graded here. Sequences can lack the tags named with a protein.

Experiments:
[1] = biological target: T1, C-terminal 31-peptide of hTK1 (human) (UniProt P04183); test: affinity chromatography on antigen-coupled agarose column
T1 sequence (peptide, coupled to agarose gel column, looked up): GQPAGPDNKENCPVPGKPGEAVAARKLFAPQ

[2] = biological target: T2, human thymidine kinase 1 (hTK1) (human) (UniProt P04183); test: ELISA on TK1 antigen-coated plate
T2 sequence (looked up): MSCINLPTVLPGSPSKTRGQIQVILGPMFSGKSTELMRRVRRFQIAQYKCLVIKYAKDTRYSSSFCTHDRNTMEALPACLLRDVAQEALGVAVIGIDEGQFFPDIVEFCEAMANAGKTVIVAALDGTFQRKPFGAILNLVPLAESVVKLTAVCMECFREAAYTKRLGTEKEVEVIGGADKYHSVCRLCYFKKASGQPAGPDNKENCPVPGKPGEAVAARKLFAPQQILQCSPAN

binding [1]: binds
binding [2]: binds
B1: anti-hTK1 recombinant chicken IgY single-chain antibody (scFv) with SBP-tag, expressed in E. coli BL21(DE3) from pET22b (scFv, not shown: small tags and cut ends)
scFv: AVTLDESGGGLQTPGGTLSLVCKASGFTFSDYGMNWVRQAPGKGLEFVAGIENDGSSTWYATAVKGRATISRDNGQSTVRLQLNNLRAEDTATYFCAKDFSSGYGGWSASGGIDAWGHGTEVIVSSGGGSGGGGSGGGGSGGGSALTQPSSVSANPGETVKITCSGDRSSYYGYYGWYQQKAPGSAPLTVIYYSSNRPTNIPSRFSGSKSGSTATLTITGVRAEDEAVYYCGSAEDSSYAAIFGAGTTL
